# From PubChem BioAssay AID624297 (National Center for Advancing Translational Sciences (NCATS), 2012)
# Hit rate of the full screen: of about 340,000 compounds, about 6,200 (1.8%) were called active. This list was built around the results that the source calls inconclusive (neither active nor inactive); the mix of calls is not that of the screen. Calls follow the shape of the dose curve; as a rule, active = well fitted activation curve with a large enough effect; inconclusive = small, poorly fitted or top-dose-only effect; inactive = no such curve, though single readings can be large or run the other way. Potencies beside an inconclusive call are fits to weak or partial responses and may not hold up.
# Assay: A quantitative high throughput screen for small molecules that induce DNA re-replication in SW480 colon adenocarcinoma cells. Also: nearly all actives have a fitted effect of over 55% in size. As to re-replication activation: % of control where 0% means no effect.
# Settings: Hoechst DNA content imaging, 48 h; re-replication activation: at 46.1 µM (top of the series)
# In short: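 Quantitative HTS format with DMSO vehicle controls; 48 hr drug incubation at 37 C, then 40 min Hoechst staining and scanning imager measurement at 405 nm excitation.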
# Potency is read from the fitted curve at half-maximal effect.
SMILES,Potency,re-replication activation
O=c1[nH]c(=O)n(C2CCCCC2)c(O)c1/C=C/C=Nc1ccccc1,"inconclusive: 29.1 µM [activator, single point]",
O=C1/C(=C\c2ccncc2)N2CCC1CC2,"inconclusive: 0.103 µM [activator, full curve, poor fit]",
Cc1nn(Cc2ccccc2)c(Cl)c1C(=O)Nc1ccc(OC(F)(F)F)cc1,,inactive: 3.82%
COC(=O)C1=C(c2ccc(F)cc2OCc2ccccc2)C[C@@H]2CC[C@H]1N2C(=O)NCc1cccc(F)c1,"inconclusive: 7.31 µM [activator, partial curve, poor fit]",
COc1ccc(-c2cc(=NCC(=O)O)c3ccccc3o2)cc1,"inconclusive: 13 µM [activator, partial curve, poor fit]",
CCCCn1c(O)c(C(CC)=Nc2ccc(OC)cc2OC)c(=O)[nH]c1=O,"inconclusive: 18.4 µM [activator, single point]",
COC(=O)C1=C(c2ccc(-c3ccccc3)c(F)c2)C[C@@H]2CC[C@H]1N2C(=O)NCCCOC(C)C,"inconclusive: 10.3 µM [activator, partial curve, poor fit]",
O=C(Nc1cccc(Br)c1)c1c(O)c2c(n(Cc3ccccc3)c1=O)CCCC2,"inconclusive: 0.082 µM [activator, full curve, poor fit]",
Cc1c(N=Cc2c(O)n(Cc3ccccc3)c(=O)[nH]c2=O)c(=O)n(-c2ccccc2)n1C,active: 29.1 µM,
CN1CCN(c2ncc(C=O)s2)CC1,"inconclusive: 0.651 µM [activator, full curve]",
CC1(C)CC(=O)C2=C(C1)OC(N)=C([N+](=O)[O-])C2c1ccc(C#N)s1 (stereo not given),"inconclusive: 29.1 µM [activator, single point]",
CC1OC(OC2CCC3(C)C(CCC4C3CC(O)C3(C)C(C5=CC(=O)OC5)CCC43O)C2)CC(O)C1OC1CC(O)C(OC2CC(O)C(OC3OC(CO)C(O)C(O)C3O)C(C)O2)C(C)O1 (stereo not given),"inconclusive: 0.422 µM [activator, full curve, poor fit]",
Oc1ccc(Cl)cc1,"inconclusive: 0.199 µM [activator, full curve, poor fit]",
Cc1cc(O)c(CN2CC=C(c3ccccc3)CC2)cc1C(C)C,"inconclusive: 25.9 µM [activator, partial curve, poor fit]",
CC(C)(C)N1CC(C(=O)c2ccccc2)C1c1ccccc1 (stereo not given),,inactive: -1.3%
COc1ccccc1CN1CCCCC1c1cccnc1 (stereo not given),,inactive: -14.8%
Nc1ccc2c3c(cccc13)CC2,active: 16.4 µM,
Cc1cccc(N2C(=O)NC(=O)/C(=C\c3cc(C)n(-c4sc5c(c4C#N)CCCC5)c3C)C2=O)c1C,,inactive: -29.3%
COc1cc2occc2c2oc(=O)ccc12,"inconclusive: 2.06 µM [activator, partial curve]",
Cc1cc(N(CCCl)CCCl)ccc1C=NNC(=O)c1cccnc1,"inconclusive: 7.31 µM [activator, partial curve, poor fit]",
COc1cc(C)c(CN2CCN(c3ccccc3)CC2)cc1C,,inactive: -13%
CC(C)Sc1nnc([C@@H](N)Cc2c[nH]c3ccccc23)o1,,inactive: -4.39%

# Reprinted at random: three records from the list.
SMILES,Potency,re-replication activation
COc1cc(C)c(CN2CCN(c3ccccc3)CC2)cc1C,,inactive: -13%
CC1OC(OC2CCC3(C)C(CCC4C3CC(O)C3(C)C(C5=CC(=O)OC5)CCC43O)C2)CC(O)C1OC1CC(O)C(OC2CC(O)C(OC3OC(CO)C(O)C(O)C3O)C(C)O2)C(C)O1 (stereo not given),"inconclusive: 0.422 µM [activator, full curve, poor fit]",
Cc1cccc(N2C(=O)NC(=O)/C(=C\c3cc(C)n(-c4sc5c(c4C#N)CCCC5)c3C)C2=O)c1C,,inactive: -29.3%

# Remaining list, next part

SMILES,Potency,re-replication activation
CNC(C)C#Cc1ccc2c(=O)c3ccccc3oc2c1 (stereo not given),"inconclusive: 16.4 µM [activator, single point]",
CC(C)CNC(=O)c1c(N)n(Cc2ccco2)c2nc3ccccc3nc12,active: 20.6 µM,
CC12Cc3cn[nH]c3C=C1CCC1C2CCC2(C)C1CCC2(C)O (stereo not given),"inconclusive: 29.1 µM [activator, single point]",
c1ccc2c(CCNCc3ccc4c(c3)OCO4)c[nH]c2c1,"inconclusive: 9.2 µM [activator, partial curve]",
Cc1ccc(C2=NC(C)(C)N3C2C3c2ccc([N+](=O)[O-])cc2)cc1 (stereo not given),,inactive: 2.5%
O=[N+]([O-])c1cccc(CN2CCN(Cc3ccc(Br)cc3)CC2)c1,,inactive: -15%
CSC1=NP(=S)(SC)N2CCCC2=C1C#N (stereo not given),,inactive: 10.9%
C/C=C(\C)C(=O)N[C@@H](c1ccccc1)[C@@H](O)C(=O)O[C@H]1C[C@@]2(O)[C@@H](OC(=O)c3ccccc3)C3[C@](C)(C(=O)[C@H](O)C(=C1C)C2(C)C)[C@@H](O)C[C@H]1OC[C@@]31OC(C)=O (stereo not given in full),active: 8.2 µM,
C=CCN1CC[C@]23c4c5ccc(O)c4OC2[C@H](O)CC[C@@]3(O)[C@H]1C5 (stereo not given in full),"inconclusive: 3.26 µM [activator, single point]",
Cc1ccc(NS(=O)(=O)c2ccc(OCC(=O)N3CCN(C)CC3)cc2)cc1,"inconclusive: 25.9 µM [activator, partial curve, poor fit]",
COc1ccccc1Sc1ccccc1CC(C)N (stereo not given),"inconclusive: 20.6 µM [activator, single point]",
CCN(CC)c1ccc(N=Cc2c(O)[nH]c(=O)[nH]c2=O)cc1,"inconclusive: 29.1 µM [activator, single point]",
O=c1cc(C(F)(F)F)c2cc3c4c(c2o1)CCCN4CCC3,"inconclusive: 5.17 µM [activator, partial curve, poor fit]",
COc1ccc(C(O)(c2ccccc2)c2ccncc2)cc1 (stereo not given),"inconclusive: 18.4 µM [activator, single point]",
CC(C)c1cccc(C(C)C)c1OCCn1ccnc1,"inconclusive: 0.0046 µM [activator, full curve, poor fit]",
CC1C(=O)C(C)C(c2ccc(Cl)cc2)NC1c1ccc(Cl)cc1 (stereo not given),"inconclusive: 18.4 µM [activator, partial curve, poor fit]",
CCOP(=O)(NC(C)C)Oc1ccc(SC)c(C)c1 (stereo not given),,inactive: -13.5%
CCn1c(O)c(C=Nc2cc(Cl)ccc2Cl)c(=O)n(CC)c1=O,"inconclusive: 29.1 µM [activator, single point]",
CC1CCCC(C)N1/N=C/c1c[nH]c2ccc(Br)cc12 (stereo not given),"inconclusive: 29.1 µM [activator, single point]",
O=C(/C=C/c1ccc2c(c1)OCO2)c1c(O)n(CCc2ccccc2)c(=O)[nH]c1=O,"inconclusive: 1.46 µM [activator, full curve, poor fit]",
C=CCN1C(=O)/C(=C/c2cccs2)C(=O)NC1=S,"inconclusive: 29.1 µM [activator, single point]",
NC(Cc1ccc(Oc2cc(I)c(O)c(I)c2)c(I)c1)C(=O)O (stereo not given),,inactive: 3.78%

SMILES,Potency,re-replication activation
COC(=O)C1=C(c2cccc(OCc3ccccc3)c2)C[C@@H]2CC[C@H]1N2C(=O)NCc1cccc(F)c1,,inactive: 6.25%
CCCOP(=O)(OCCC)C(Nc1ccc(C(C)C)cc1)c1ccc([N+](=O)[O-])cc1 (stereo not given),active: 20.6 µM,
Cc1cccc(-n2c(C)nc3cc(C(=O)N4CCC5(CC4)OCCO5)ccc32)c1,"inconclusive: 29.1 µM [activator, single point]",
CCOC(=O)c1c(/N=C/c2c(O)n(-c3cccc(C)c3)c(=O)[nH]c2=O)sc2c1CCCC2,"inconclusive: 25.9 µM [activator, partial curve, poor fit]",
Cc1nn(Cc2ccccc2)c(C)c1C(=O)O,"inconclusive: 6.51 µM [activator, single point]",
Nc1c(C(=O)NCc2ccco2)c2nc3ccccc3nc2n1Cc1ccccc1,active: 20.6 µM,
CCOc1cccc(CNCCc2c(C)[nH]c3ccc(OC(F)(F)F)cc23)c1O,"inconclusive: 29.1 µM [activator, single point]",
COc1cccc(/C=N/NC(=O)c2c(C)nc3ccc(Br)cn23)c1,"inconclusive: 0.116 µM [activator, full curve, poor fit]",
Cc1ccccc1N1CCN(C2CCCN(C(=O)Cc3c(C)noc3C)C2)CC1 (stereo not given),"inconclusive: 29.1 µM [activator, partial curve, poor fit]",
CC[C@]1(c2cccc(O)c2)CCCCN(C)C1,,inactive: -2.42% [at 20.6 µM]
CCCCCn1c(=O)c(C(=O)Nc2ccccc2N)c(O)c2ccccc21,,inactive: -8.04%
COc1ccc(N2C(=O)/C(=C/c3ccc(N(C)C)o3)C(=O)NC2=S)cc1,"inconclusive: 0.651 µM [activator, full curve]",
COc1ccccc1CC(=O)Nc1ccc2c(c1)OC1(CCCC1)O2,"inconclusive: 29.1 µM [activator, partial curve, poor fit]",
COc1ccc(CCn2c(O)c(C=Nc3ccc(F)cc3)c(=O)[nH]c2=O)cc1OC,"inconclusive: 11.6 µM [activator, single point]",
O=S1(=O)N(CCN2CC=C(c3c[nH]c4cc(F)ccc34)CC2)c2cccc3c2N1CCC3,"inconclusive: 0.326 µM [activator, partial curve, poor fit]",
COc1ccc(Nc2ncc(C(=O)N3CCC4(CC3)OCCO4)c3ccccc23)cc1,,inactive: -5.86%
O=C1NC(c2cc3ccccc3nc2Cl)Nc2ccccc21 (stereo not given),"inconclusive: 29.1 µM [activator, partial curve, poor fit]",
COC(=O)C1=C(c2ccc(F)cc2OCc2ccccc2)C[C@@H]2CC[C@H]1N2C(=O)NCc1ccc(C(C)(C)C)cc1,"inconclusive: 25.9 µM [activator, partial curve, poor fit]",
O=C(CF)N(O)c1ccc(C=Cc2ccccc2)cc1,active: 10.3 µM,
COc1cc(-c2ccc(-[n+]3nc(-c4ccccc4)nn3-c3ccc([N+](=O)[O-])cc3)c(OC)c2)ccc1-[n+]1nc(-c2ccccc2)nn1-c1ccc([N+](=O)[O-])cc1,"inconclusive: 13.3 µM [activator, single point]",
Cc1cc(Cl)ccc1C(=O)C1CCCN(Cc2ccon2)C1 (stereo not given),,inactive: -12.2%

# Record cards, from the list above:
# O=C1NC(c2cc3ccccc3nc2Cl)Nc2ccccc21 (stereo not given) as listed: Potency: inconclusive: 29.1 µM [activator, partial curve, poor fit]
# O=c1[nH]c(=O)n(C2CCCCC2)c(O)c1/C=C/C=Nc1ccccc1 as listed: Potency: inconclusive: 29.1 µM [activator, single point]
